These are yes or no findings as the source states them, for the method shown. Binding seen in cells or lysates may run through a third protein. A result given as binding can be weak or reduced; the word gives no strength.
What was measured:
[1] = target: Neuroplastin (rat (endogenous in INS-1 832/13)) (UniProt P97546); assay: co-IP; endogenous proteins in INS-1 832/13 cells; TRAF6 quantified as precipitated with NPTN; Nptn KO cells as control; for TRAF6, cells with or without cytokine mix (5 ng/mL IL-1β + 100 ng/mL IFNγ) for 6 h
[2] = target: Neuroplastin (rat (endogenous in INS-1 832/13)) (UniProt P97546); assay: co-IP; endogenous NPTN and TRAF6 in Nptn WT INS-1 832/13 cells treated with or without cytokine mix (5 ng/mL IL-1β + 100 ng/mL IFNγ) and MANF proteins (5 µg/mL) for 6 h; TRAF6 precipitated with NPTN quantified
[3] = target: Neuroplastin (rat (endogenous in INS-1 832/13)) (UniProt P97546); assay: co-IP; endogenous proteins in INS-1 832/13 cells; TRAF6 quantified as precipitated with NPTN; Nptn KO cells as control; for TRAF6, cells with or without cytokine mix (5 ng/mL IL-1β + 100 ng/mL IFNγ) for 6 h; remark: listed apart in the source

Chains of the proteins cited; added tags and fusions are not shown. Lines headed by an entry give the natural chain unless they say otherwise; changes in a name come on top.
UniProt P97546: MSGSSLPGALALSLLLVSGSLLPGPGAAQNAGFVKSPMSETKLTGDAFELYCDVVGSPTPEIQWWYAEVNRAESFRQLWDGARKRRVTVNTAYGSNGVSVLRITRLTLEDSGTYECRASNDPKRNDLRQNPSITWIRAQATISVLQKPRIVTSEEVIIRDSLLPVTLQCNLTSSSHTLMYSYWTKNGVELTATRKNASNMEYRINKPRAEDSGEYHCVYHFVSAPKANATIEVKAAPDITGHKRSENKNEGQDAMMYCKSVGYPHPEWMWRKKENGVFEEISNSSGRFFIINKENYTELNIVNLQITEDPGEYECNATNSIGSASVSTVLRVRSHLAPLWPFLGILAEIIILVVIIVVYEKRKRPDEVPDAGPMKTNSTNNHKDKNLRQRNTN
UniProt P11506: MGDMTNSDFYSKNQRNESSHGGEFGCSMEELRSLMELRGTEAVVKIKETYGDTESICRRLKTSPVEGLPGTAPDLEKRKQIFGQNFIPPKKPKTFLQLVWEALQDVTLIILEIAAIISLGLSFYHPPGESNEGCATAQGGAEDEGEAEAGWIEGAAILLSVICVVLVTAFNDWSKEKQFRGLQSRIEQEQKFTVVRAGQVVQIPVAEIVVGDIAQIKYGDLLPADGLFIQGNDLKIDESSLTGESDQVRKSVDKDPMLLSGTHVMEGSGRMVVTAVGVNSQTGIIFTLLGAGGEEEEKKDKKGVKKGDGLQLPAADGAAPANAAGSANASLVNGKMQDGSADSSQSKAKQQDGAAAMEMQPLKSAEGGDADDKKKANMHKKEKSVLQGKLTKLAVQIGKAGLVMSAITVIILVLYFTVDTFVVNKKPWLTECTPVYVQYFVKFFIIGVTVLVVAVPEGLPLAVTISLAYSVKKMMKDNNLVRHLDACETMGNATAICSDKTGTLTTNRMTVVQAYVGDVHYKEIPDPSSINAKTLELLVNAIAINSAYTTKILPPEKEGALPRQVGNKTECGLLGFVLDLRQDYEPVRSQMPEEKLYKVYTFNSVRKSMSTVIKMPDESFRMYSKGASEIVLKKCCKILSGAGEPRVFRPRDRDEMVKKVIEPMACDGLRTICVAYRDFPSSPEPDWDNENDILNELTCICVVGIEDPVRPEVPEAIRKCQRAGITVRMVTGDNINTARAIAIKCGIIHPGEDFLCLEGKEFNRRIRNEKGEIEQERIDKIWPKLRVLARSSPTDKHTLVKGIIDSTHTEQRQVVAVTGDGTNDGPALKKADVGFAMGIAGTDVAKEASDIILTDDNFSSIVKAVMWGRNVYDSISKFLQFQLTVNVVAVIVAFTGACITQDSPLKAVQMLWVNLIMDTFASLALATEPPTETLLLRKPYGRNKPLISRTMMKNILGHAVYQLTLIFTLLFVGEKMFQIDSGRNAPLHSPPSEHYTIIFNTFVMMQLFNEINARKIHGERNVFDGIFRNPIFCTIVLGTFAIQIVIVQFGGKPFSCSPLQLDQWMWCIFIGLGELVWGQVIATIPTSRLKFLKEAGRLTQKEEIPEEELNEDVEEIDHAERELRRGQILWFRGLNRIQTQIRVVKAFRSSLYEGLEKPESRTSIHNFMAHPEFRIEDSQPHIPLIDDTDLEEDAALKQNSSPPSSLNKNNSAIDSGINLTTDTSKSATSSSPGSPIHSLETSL

Molecule	binding [1]	binding [2]	binding [3]
plasma membrane ATPase isoform PMCA2 (from UniProt P11506 1-1243)	binds	–	–
TNF receptor-associated factor 6 (protein, UniProt B5DF45 1-530) MSLLNCENSCASSQSSSDCCAAMANSCSAAMKDDSVSGCVSTGNLSSSFMEEIQGYDVEFDPPLESKYECPICLMALREAVQTPCGHRFCKACITKSIRDAGHKCPVDNEILLENQLFPDNFAKREILSLTVKCPNKGCVQKMELRHLEDHQVHCEFALVICPQCQRFFQKCQINKHIIEDCPRRQVSCVNCAVPMPYEEKEIHDQSCPLANIICEYCGTILIREQMPNHYDLDCPTAPVPCTFSVFGCHEKMQRNHLARHLQENTQLHMRLLAQAVHNVNLSLRPCDASSPSRGCRPEDPNYEETVKQLEGRLVRQDHQIRELTAKMETQSMHVSELKRTIRSLEDKVAEMEAQQCNGIYIWKIGNFGMHLKSQEEERPVVIHSPGFYTGRPGYKLCMRLHLQLPTAQRCANYISLFVHTMQGEYDSHLPWPFQGTIRLTILDQSEAVIRQNHEEVMDAKPELLAFQRPTIPRNPKGFGYVTFMHLEALRQGTFIKDDTLLVRCEVSTRFDMGGLRKEGFQPRSTDAGV	–	binds	binds
